Results deposited as PubChem BioAssay AID1159578 (Peter MacCallum Cancer Centre, 2015).
Here is one part, drawn at random, of about 18,000 deposited reagents. Of all reagents, about 1,030 (5.7%) were called active. 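Inactive calls also include pools with fewer than 3300 nuclei, whose migration was not assessed.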 Raw values are not corrected between plates. Not all columns of the deposit are shown.

Aim: 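siRNA pools altering how lymphatic endothelial cells close a scratch wound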 (primary screen)
System: human lymphatic endothelial cells
Reagents: siRNA pool against human genes, 40 nM
Duration: 48 h after transfection
Measured: 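Cells stained with dye and imaged after a scratch; covered wound area and nuclei counted, duplicates averaged, migration set against mock wells and turned into a robust z-score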
Direction: migration robust z-score: higher = faster migration into the scratch; nuclei per well: higher = more cells in the well
Rule for the call: 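Migration changed when robust z exceeds 2 or falls below -2 and mean nuclei number is at least 3300; otherwise not called changed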
Calls: active = migration changed; inactive = no migration change, or too few cells

GOLGA8B (golgin A8 family member B) [SID255365900] | migration robust z-score: 0.86; migration class with cell-count check: migration z between -2 and 2; enough cells; nuclei per well, duplicate mean: 6250; Outcome: inactive
ZMAT2 (zinc finger matrin-type 2) [SID255363566] | migration robust z-score: 0.64; migration class with cell-count check: migration z between -2 and 2; enough cells; nuclei per well, duplicate mean: 5690; Outcome: inactive
PLXNA1 (plexin A1) [SID255351645] | migration robust z-score: 0.78; migration class with cell-count check: migration z between -2 and 2; enough cells; nuclei per well, duplicate mean: 4068; Outcome: inactive
CALHM4 (calcium homeostasis modulator family member 4) [SID255364285] | migration robust z-score: -0.24; migration class with cell-count check: migration z between -2 and 2; enough cells; nuclei per well, duplicate mean: 4108; Outcome: inactive
CDH5 (cadherin 5) [SID255348824] | migration robust z-score: -0.66; migration class with cell-count check: migration z between -2 and 2; enough cells; nuclei per well, duplicate mean: 4857; Outcome: inactive
ZSCAN10 (zinc finger and SCAN domain containing 10) [SID255361553] | migration robust z-score: 0.7; migration class with cell-count check: migration z between -2 and 2; enough cells; nuclei per well, duplicate mean: 5416; Outcome: inactive
WBP1 (WW domain binding protein 1) [SID255356331] | migration robust z-score: -0.44; migration class with cell-count check: migration z between -2 and 2; enough cells; nuclei per well, duplicate mean: 4832; Outcome: inactive
PPP1R9A (protein phosphatase 1 regulatory subunit 9A) [SID255358713] | migration robust z-score: 0.23; migration class with cell-count check: migration z between -2 and 2; enough cells; nuclei per well, duplicate mean: 5738; Outcome: inactive
PPP2R5D (protein phosphatase 2 regulatory subunit B'delta) [SID255351754] | migration robust z-score: -0.64; migration class with cell-count check: migration z between -2 and 2; enough cells; nuclei per well, duplicate mean: 4855; Outcome: inactive
PDIA3 (protein disulfide isomerase family A member 3) [SID255350061] | migration robust z-score: -1.79; migration class with cell-count check: migration z between -2 and 2; enough cells; nuclei per well, duplicate mean: 4488; Outcome: inactive
MEN1 (menin 1) [SID255350935] | migration robust z-score: -1.03; migration class with cell-count check: migration z between -2 and 2; enough cells; nuclei per well, duplicate mean: 4620; Outcome: inactive
MXRA7 (matrix remodeling associated 7) [SID255365880] | migration robust z-score: 1.77; migration class with cell-count check: migration z between -2 and 2; enough cells; nuclei per well, duplicate mean: 4460; Outcome: inactive

2 entries from above, set out differently.
gene knocked down	PubChem SID	migration robust z-score	migration class with cell-count check	nuclei per well, duplicate mean	Outcome
CDH5 (cadherin 5)	SID255348824	-0.66	migration z between -2 and 2; enough cells	4857	inactive
ZSCAN10 (zinc finger and SCAN domain containing 10)	SID255361553	0.7	migration z between -2 and 2; enough cells	5416	inactive
